PubChem BioAssay AID686937, Drosophila RNAi Screening Center | 2013
Aim: 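Genes in the fly needed for secretion of protein constitutively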 (primary screen). Cells: Drosophila S2 cells expressing secreted horseradish peroxidase. Reagents: long dsRNA against Drosophila genes. Time to read-out: about 5.5 days (5 days dsRNA, then 12 h reporter induction). Treatment: reporter expression induced after 5 days of dsRNA, read 12 h later; inducer not stated. Read-out: 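Chemiluminescent measurement of peroxidase in the medium 12 h after reporter induction, following 5 days of dsRNA, given as a z-score per plate; higher means more secretion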. Reading the numbers: z-score: higher = more reporter secreted into medium.
In all, the deposit lists about 23,000 reagents; below is a random part of those with a known target gene and a result. 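Reduced-secretion tags in replicate 1 do not always agree with the z-scores; no criterion for assigning the tags was given.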 Further read-outs or replicates are left out here. The record does not give: the amount of reagent.

The opening 3 records, ahead of the listing:
no.	gene knocked down	amplicon	z-score, replicate 1	z-score, replicate 2
1	CG11842	DRSC14400	0.48	0.68
2	CG33098	DRSC22903	-0.14	0.19
3	saturn	DRSC09303	0.23	0.25

Main list, from the first entry:
no.	gene knocked down	amplicon	z-score, replicate 1	z-score, replicate 2
1	CG11842	DRSC14400	0.48	0.68
2	CG33098	DRSC22903	-0.14	0.19
3	saturn	DRSC09303	0.23	0.25
4	ORMDL	DRSC11737	0.28	0.23
5	RpL14	DRSC11269	-3.51	-1.98
6	apolpp	DRSC17216	0.22	0.1
7	CG15118	DRSC06540	0.07	0.36
8	CG10916	DRSC06012	0.3	0.58
9	prt	DRSC16894	0.68	0.6
10	Grx5	DRSC19593	0.44	-0.18
11	CG11601	DRSC00318	0.19	0.16
12	Cyp4ad1	DRSC07369	0.32	0.31
13	CG30384	DRSC06032	0.3	0.26
14	CG12177	DRSC19437	0.1	-0.02
15	CG12177	DRSC21524	0.26	-0.32
16	Snx17	DRSC02884	0.07	0.35
17	mRpL54	DRSC04545	0.15	-0.2
18	CG30458	DRSC06660	0.38	0.24
19	CG12715	DRSC19492	0.29	0.35
20	CG15130	DRSC02430	0.2	0.14
21	Twdlbeta	DRSC07310	0.29	0.33
22	CG10713	DRSC09786	0.54	0.41
23	Wdr82	DRSC02595	0.24	0.3
24	Wdr82	DRSC21723	1	1.31
25	CG10841	DRSC14271	0.26	0.32
26	CG12025	DRSC08230	0.36	0.28
27	Rac1	DRSC08688	-0.48	-0.42
28	Cpsf73	DRSC16291	-1.66	-2.47
29	CenG1A	DRSC02538	-0.29	-0.27
30	CenG1A	DRSC03505	0.04	0.18
31	CenG1A	DRSC03506	0.31	0.16
32	ATPsynE	DRSC15476	-0.06	-0.12
33	Hmt4-20	DRSC18482	0.1	-0.25
34	Mctp	DRSC06510	0.43	0.19
35	Mctp	DRSC22896	0.86	0.23
36	CG31909	DRSC22180	0.16	0.78
37	CG8833	DRSC11050	0.21	0.22
38	GlnRS	DRSC14140	0.09	-0.26
39	Pde11	DRSC02028	0.86	0.06
40	Pde11	DRSC02460	-0.42	-0.26
41	CG32428	DRSC11697	-0.6	-0.29
42	CG32428	DRSC11768	0.23	0.34
43	CG4483	DRSC10426	0.79	0.57
44	CG30094	DRSC22268	-0.7	-0.15
45	hpRNA:CR18854	DRSC02702	0.36	-0.56
46	CG10494	DRSC04072	0.21	0.15
47	CG14259	DRSC14754	0.33	0.04
48	CG1142	DRSC12531	0.2	0.06
49	Ttc1	DRSC15016	-0.22	-0.22
50	Ttc1	DRSC22469	-0.25	-0.38
51	Ir76a	DRSC10987	0.26	0.24
52	CG15715	DRSC10216	0.08	0.13
53	CG31544 (retired record)	DRSC12466	0.13	0.31
54	CG43121	DRSC10457	0.31	0.38
55	b	DRSC03487	0.19	0.28
56	Eig71Eh	DRSC11155	0.29	0.11
